Test results: article PMC4351882

Experiments:
[1] = molecular target: T1, Flag-S6KL^K193Q (kinase-dead S6KL) (Drosophila melanogaster) (UniProt Q9VWQ2); assay: co-IP; S2 cells co-transfected with Flag-S6KL or Flag-S6KL^KD and Myc-Tkv; RIPA lysates precleared, immunoprecipitated with anti-Flag (or anti-Myc; control IgG) on protein G-Sepharose, 3 h at 4°C, five washes with RIPA buffer; western with anti-Flag and anti-Myc
T1 sequence: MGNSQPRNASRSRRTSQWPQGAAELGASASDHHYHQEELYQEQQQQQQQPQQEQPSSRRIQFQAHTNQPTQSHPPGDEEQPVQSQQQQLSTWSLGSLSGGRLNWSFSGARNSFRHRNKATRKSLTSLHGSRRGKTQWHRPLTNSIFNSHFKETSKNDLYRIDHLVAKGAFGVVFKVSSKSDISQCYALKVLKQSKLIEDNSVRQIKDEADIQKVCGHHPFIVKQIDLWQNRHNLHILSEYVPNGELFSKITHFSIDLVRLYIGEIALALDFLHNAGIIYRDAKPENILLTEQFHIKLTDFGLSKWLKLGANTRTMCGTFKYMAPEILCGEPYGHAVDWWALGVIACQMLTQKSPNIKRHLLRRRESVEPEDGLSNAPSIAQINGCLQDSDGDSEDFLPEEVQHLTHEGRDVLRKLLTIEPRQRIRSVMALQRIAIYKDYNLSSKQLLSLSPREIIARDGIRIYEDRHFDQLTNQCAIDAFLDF

[2] = molecular target: T2, Flag-S6KL (Drosophila S6 kinase like) (Drosophila melanogaster) (UniProt Q9VWQ2); assay: as above
T2 sequence: T1 sequence with Q193K

binding [1]: binds
binding [2]: binds
Substance: Myc-Tkv (BMP type I receptor thickveins) (Drosophila melanogaster)

Substitutions are numbered along the chain they refer to. No constants are given. Whether binding was seen depends on the method and setting. Binding seen in cells or lysates may run through a third protein. Binding calls can cover weak binding; strength is not graded here. Tags and fused reporters may be left off the sequences shown.
